In PubChem BioAssay AID686971 (National Center for Advancing Translational Sciences (NCATS), 2013) one finds Potency data, which are given here for one molecule.

This is a selection; strong and weak results do not stand in their true shares. Inconclusive results are not listed. Activity calls are given as the source filed them. Calls come from the whole dose curve; as a rule, active = well fitted cell-killing curve with a large enough effect; inconclusive = small, poorly fitted or top-dose-only effect, or effect the other way, or another doubt; inactive = no such curve, though single readings can be large or run the other way.
Potency is the fitted concentration of half-maximal effect.

The assay can be described thus: qHTS for induction of synthetic lethality in tumor cells producing 2HG: qHTS for the HT-1080-IDH1KD cell line. To be noted: HT-1080 IDH1 knockdown viability, ATP luminescence, 48 h. From the text: Unbiased genomic sequencing for 22 glioma genomes found recurrent mutation of IDH1 on chromosome 2q33, a gene encoding the cytosolic isoform of IIDH1 associated with the tri-carboxylic acid cycle (TCA) that catalyzes the oxidative decarboxylation of isocitrate, yielding alpha-ketoglutarate and CO2 via NADP+ to NADPH conversion. Subsequent studies confirmed the recurrent IDH mutations in up to 70% of secondary gliomas and in 10% of AML cases. […]
Suspensions of trypsinized HT-1080-IDH1KD cells were dispensed into white, tissue culture-treated, solid 1536-well plates at 5uL/well (750 cells/well final concentration) in RPMI medium supplemented with 5% FBS. […] The plates were measured on a PerkinElmer ViewLux plate reader for luminescent signal (clear filter, 1 sec exp.). […]
Concentration-response curves were fitted to the signals arising from the resulting luminescence. The concentration-effect curves were then classified based on curve quality (r2), response magnitude and degree of measured activity, and compounds were subsequently categorized based on their curve class.
On the technique in general: In qHTS, concentration-response curves come from the screen itself.
Consider `COc1c(O)cc2c(c1OC)-c1ccc(SC)c(=O)cc1C(NC(C)=O)CC2` (stereo unspecified), for which the Potency is active: 7.3 nM.
